No constants are given. Whether binding was seen depends on the method and setting. In cells and extracts the contact can be indirect. Binding calls can cover weak binding; strength is not graded here. Where a sequence is shown, tags or fusion partners need not be part of it.

Protein sequences, listed by entry. Tags and fused reporters are not part of them. Lines headed by an entry give the natural chain unless they say otherwise; changes in a name come on top.
UniProt Q9N595: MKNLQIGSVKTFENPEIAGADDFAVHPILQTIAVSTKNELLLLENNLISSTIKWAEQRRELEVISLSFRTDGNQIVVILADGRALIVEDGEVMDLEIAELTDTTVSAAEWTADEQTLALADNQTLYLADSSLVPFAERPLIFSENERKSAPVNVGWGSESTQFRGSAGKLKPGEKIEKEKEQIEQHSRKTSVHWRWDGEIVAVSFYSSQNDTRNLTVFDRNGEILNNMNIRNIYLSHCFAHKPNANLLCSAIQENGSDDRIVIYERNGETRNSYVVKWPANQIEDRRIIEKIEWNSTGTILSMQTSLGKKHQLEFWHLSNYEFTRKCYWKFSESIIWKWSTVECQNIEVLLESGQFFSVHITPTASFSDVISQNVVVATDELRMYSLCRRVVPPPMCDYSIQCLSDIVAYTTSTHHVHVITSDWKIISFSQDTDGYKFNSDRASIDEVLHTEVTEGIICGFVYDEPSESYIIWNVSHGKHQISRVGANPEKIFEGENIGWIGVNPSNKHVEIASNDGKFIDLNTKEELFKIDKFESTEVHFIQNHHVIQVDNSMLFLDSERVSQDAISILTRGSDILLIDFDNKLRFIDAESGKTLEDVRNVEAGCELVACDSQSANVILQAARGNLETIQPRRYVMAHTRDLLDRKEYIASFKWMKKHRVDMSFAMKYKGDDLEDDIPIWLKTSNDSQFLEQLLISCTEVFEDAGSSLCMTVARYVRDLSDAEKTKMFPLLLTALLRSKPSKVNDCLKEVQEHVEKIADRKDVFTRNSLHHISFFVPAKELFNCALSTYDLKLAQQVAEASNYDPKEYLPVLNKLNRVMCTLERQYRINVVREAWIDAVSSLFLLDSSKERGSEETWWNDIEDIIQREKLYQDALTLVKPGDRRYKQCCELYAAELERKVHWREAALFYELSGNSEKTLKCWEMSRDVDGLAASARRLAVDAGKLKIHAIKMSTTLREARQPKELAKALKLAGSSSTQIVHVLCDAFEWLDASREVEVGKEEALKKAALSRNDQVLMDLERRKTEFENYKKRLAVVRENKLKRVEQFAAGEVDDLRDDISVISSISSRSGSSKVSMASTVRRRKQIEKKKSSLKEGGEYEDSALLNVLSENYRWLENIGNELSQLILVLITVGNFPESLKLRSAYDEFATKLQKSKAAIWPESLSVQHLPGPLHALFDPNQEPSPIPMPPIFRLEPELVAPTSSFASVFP

Consider two molecules from PMC2809763.

Test [1] addresses T1, ELPC-3::GFP (C. elegans) (UniProt Q23651).
T1 sequence: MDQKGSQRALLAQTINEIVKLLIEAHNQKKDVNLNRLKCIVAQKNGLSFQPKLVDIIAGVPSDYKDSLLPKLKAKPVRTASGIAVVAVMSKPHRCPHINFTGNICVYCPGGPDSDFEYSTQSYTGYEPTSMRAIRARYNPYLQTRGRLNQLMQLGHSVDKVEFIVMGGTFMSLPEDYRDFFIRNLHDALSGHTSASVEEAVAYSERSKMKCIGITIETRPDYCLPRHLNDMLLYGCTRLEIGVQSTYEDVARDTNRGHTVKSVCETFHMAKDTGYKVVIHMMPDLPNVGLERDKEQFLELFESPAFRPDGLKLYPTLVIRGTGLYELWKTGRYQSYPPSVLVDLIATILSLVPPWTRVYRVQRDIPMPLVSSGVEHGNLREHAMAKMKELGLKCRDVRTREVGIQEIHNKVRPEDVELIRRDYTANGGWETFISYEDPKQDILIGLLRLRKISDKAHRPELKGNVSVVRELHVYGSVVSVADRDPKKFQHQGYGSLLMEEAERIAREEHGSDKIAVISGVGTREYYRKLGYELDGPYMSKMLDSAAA
The test is described as follows: co-IP; reciprocal: worm lysates in HNNG buffer, 4°C; immunoprecipitation with anti-GFP, blot with anti-ELPC-1.

The target of test [2] is α-tubulin (endogenous) (C. elegans (endogenous in worms)). Put plainly: co-IP; worm lysates in HNNG buffer, 4°C; α-tubulin immunoprecipitated with anti-α-tubulin, blot with anti-ELPC-1 or anti-GFP; backgrounds: wt, elpc-3 deleted, elpc-1(ng10) expressing ELPC-1::GFP variants, elpc-3(tm3120) expressing ELPC-3::GFP.

Take “ELPC-1 (endogenous) (from UniProt Q9N595)”: in test [1], the binding entry is “binds”.

B1: ELPC-3::GFP (protein, UniProt Q23651 1-547)
chain: MDQKGSQRALLAQTINEIVKLLIEAHNQKKDVNLNRLKCIVAQKNGLSFQPKLVDIIAGVPSDYKDSLLPKLKAKPVRTASGIAVVAVMSKPHRCPHINFTGNICVYCPGGPDSDFEYSTQSYTGYEPTSMRAIRARYNPYLQTRGRLNQLMQLGHSVDKVEFIVMGGTFMSLPEDYRDFFIRNLHDALSGHTSASVEEAVAYSERSKMKCIGITIETRPDYCLPRHLNDMLLYGCTRLEIGVQSTYEDVARDTNRGHTVKSVCETFHMAKDTGYKVVIHMMPDLPNVGLERDKEQFLELFESPAFRPDGLKLYPTLVIRGTGLYELWKTGRYQSYPPSVLVDLIATILSLVPPWTRVYRVQRDIPMPLVSSGVEHGNLREHAMAKMKELGLKCRDVRTREVGIQEIHNKVRPEDVELIRRDYTANGGWETFISYEDPKQDILIGLLRLRKISDKAHRPELKGNVSVVRELHVYGSVVSVADRDPKKFQHQGYGSLLMEEAERIAREEHGSDKIAVISGVGTREYYRKLGYELDGPYMSKMLDSAAA
Consider B1, for which the binding result in test [2] is “binds”.
